Results reported in the supplement of paper PMC8728848.
This is one part of the list.

Columns and labels:
Experiment in all cases: glycan array binding signal (z-score within array); higher = stronger binding
Conditions in all cases: glycan notation: IUPAC condensed, linker removed
[1] = target: Fuc(a1-2)Gal(b1-4)GlcNAc(b1-3)Gal(b1-4)GlcNAc(b1-3)Gal(b1-4)GlcNAc
Procedure, shortened: (§1)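 Glycan array binding is given as a within-array Z-score, which can be read as non-binding when negative. The arrays, 3228 of them, came from the Consortium for Functional Glycomics database and were retained only where the protein sequence was available. Z-scores were averaged across arrays of the same protein sequence at different concentrations or buffers and across linkers.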

[2] = target: Fuc(a1-2)Gal(b1-4)GlcNAc(b1-3)GalNAc
Procedure, shortened: as §1

[3] = target: Fuc(a1-2)Gal(b1-4)GlcNAc(b1-3)[Fuc(a1-2)Gal(b1-4)GlcNAc(b1-6)]GalNAc
Procedure, shortened: as §1

[4] = target: Fuc(a1-2)Gal(b1-4)GlcNAc(b1-3)[Fuc(a1-3)[Gal(b1-4)]GlcNAc(b1-6)]Gal(b1-4)Glc
Procedure, shortened: as §1

[5] = target: Fuc(a1-2)Gal(b1-4)GlcNAc(b1-6)GalNAc
Procedure, shortened: as §1

[6] = target: Fuc(a1-2)Gal(b1-4)GlcNAc6S
Procedure, shortened: as §1

[7] = target: Fuc(a1-2)Gal(b1-4)[Fuc(a1-3)]GlcNAc
Procedure, shortened: as §1

[8] = target: Fuc(a1-2)Gal(b1-4)[Fuc(a1-3)]GlcNAc(b1-2)Man(a1-3)[Fuc(a1-2)Gal(b1-4)[Fuc(a1-3)]GlcNAc(b1-2)Man(a1-6)]Man(b1-4)GlcNAc(b1-4)[Fuc(a1-6)]GlcNAc
Procedure, shortened: as §1

[9] = target: Fuc(a1-2)Gal(b1-4)[Fuc(a1-3)]GlcNAc(b1-2)[Fuc(a1-2)Gal(b1-4)[Fuc(a1-3)]GlcNAc(b1-4)]Man(a1-3)[Fuc(a1-2)Gal(b1-4)[Fuc(a1-3)]GlcNAc(b1-2)Man(a1-6)]Man(b1-4)GlcNAc(b1-4)GlcNAc
Procedure, shortened: as §1

[10] = target: Fuc(a1-2)Gal(b1-4)[Fuc(a1-3)]GlcNAc(b1-3)Gal(b1-4)[Fuc(a1-3)]GlcNAc
Procedure, shortened: as §1

[11] = target: Fuc(a1-2)Gal(b1-4)[Fuc(a1-3)]GlcNAc(b1-3)Gal(b1-4)[Fuc(a1-3)]GlcNAc(b1-3)Gal(b1-4)[Fuc(a1-3)]GlcNAc
Procedure, shortened: as §1

[12] = target: Fuc(a1-2)Gal(b1-4)[Fuc(a1-3)]GlcNAc(b1-3)GalNAc
Procedure, shortened: as §1

[13] = target: Fuc(a1-2)Gal(b1-4)[Fuc(a1-3)]GlcNAc(b1-3)[Neu5Ac(a2-6)Gal(b1-4)GlcNAc(b1-6)]Gal(b1-4)Glc
Procedure, shortened: as §1

[14] = target: Fuc(a1-2)Gal3S(b1-4)GlcNAc
Procedure, shortened: as §1

[15] = target: Fuc(a1-2)Gal6S(b1-3)GlcNAc
Procedure, shortened: as §1

[16] = target: Fuc(a1-2)Gal6S(b1-3)GlcNAc6S
Procedure, shortened: as §1

Fuc(a1-2)Gal6S(b1-4)Glc = target: Fuc(a1-2)Gal6S(b1-4)Glc
Procedure, shortened: as §1

[17] = target: Fuc(a1-2)Gal6S(b1-4)Glc6S
Procedure, shortened: as §1

Fuc(a1-2)[Gal(a1-3)]Gal = target: Fuc(a1-2)[Gal(a1-3)]Gal
Procedure, shortened: as §1

[18] = target: Fuc(a1-2)[Gal(a1-3)]Gal(b1-3)GalNAc
Procedure, shortened: as §1

[19] = target: Fuc(a1-2)[Gal(a1-3)]Gal(b1-3)GalNAc(b1-3)Gal(a1-4)Gal(b1-4)Glc
Procedure, shortened: as §1

[20] = target: Fuc(a1-2)[Gal(a1-3)]Gal(b1-3)GlcNAc
Procedure, shortened: as §1

[21] = target: Fuc(a1-2)[Gal(a1-3)]Gal(b1-3)GlcNAc(b1-2)Man(a1-3)[Fuc(a1-2)[Gal(a1-3)]Gal(b1-3)GlcNAc(b1-2)Man(a1-6)]Man(b1-4)GlcNAc(b1-4)GlcNAc
Procedure, shortened: as §1

[22] = target: Fuc(a1-2)[Gal(a1-3)]Gal(b1-3)GlcNAc(b1-2)Man(a1-3)[Fuc(a1-2)[Gal(a1-3)]Gal(b1-3)GlcNAc(b1-2)Man(a1-6)]Man(b1-4)GlcNAc(b1-4)[Fuc(a1-6)]GlcNAc
Procedure, shortened: as §1

[23] = target: Fuc(a1-2)[Gal(a1-3)]Gal(b1-3)GlcNAc(b1-3)GalNAc
Procedure, shortened: as §1

[24] = target: Fuc(a1-2)[Gal(a1-3)]Gal(b1-3)GlcNAc(b1-6)GalNAc
Procedure, shortened: as §1

[25] = target: Fuc(a1-2)[Gal(a1-3)]Gal(b1-4)Glc
Procedure, shortened: as §1

[26] = target: Fuc(a1-2)[Gal(a1-3)]Gal(b1-4)GlcNAc
Procedure, shortened: as §1

[27] = target: Fuc(a1-2)[Gal(a1-3)]Gal(b1-4)GlcNAc(b1-2)Man
Procedure, shortened: as §1

[28] = target: Fuc(a1-2)[Gal(a1-3)]Gal(b1-4)GlcNAc(b1-2)Man(a1-3)[Fuc(a1-2)[Gal(a1-3)]Gal(b1-4)GlcNAc(b1-2)Man(a1-6)]Man(b1-4)GlcNAc(b1-4)GlcNAc
Procedure, shortened: as §1

B1: Awp1 (Candida glabrata) (protein)
chain: MSLITIFAFLIKATLVLSLDILTPTTLTGDQTFNEDVSVVSSLTLNDGSQYLFNNLLQIAPSSASVTANALAAVSVFTFSLPPSSSLSNSGTLIISNSNTGPSTEQHIVITPNVMANTGTITLSLAHTNTDSSSTLIIDPVTFYNTGTINYESIGSETNDPSLTGNILSIGSSGRTLQNLGTINLNAANSYYLLGTITENSGSINVQKGFLYVNALDFIGNTINLSTTTALAFISPVSQVVRVRGVFFGNIIASVGSSGTFSYNTQTGILTVTTNGVYSYDIGCGYNPALMSGQQETLSFQGNPYDTFLVLVNQPIPSDLTCAAVSSSITPSSSVEPSSSVVPSSSVEPSSSVEPSSSVEPSSSVEPSSSVEPSSSVEPSSSVEPSSSVEPSSSVEPSSSVEPSSSVEPSSSVEPSSSVEPSSSVEPSSSVEPSSSVEPSSSVEPSSSVEPSSSVEPSSLIVPSSSVEPSSSVLPSSSVVPSSSVEPSTPPIPSSSVEPSSSVVPSSPAVPSSSVEPSTPPIPSSSVVSASVFDTSSTLPSSPSVPPSSVSPSTISTPSSSAAPSSFCPTCVSSGTPPAPSSSAIVPTSSAGGGNGGDNREPGAAGQPGAAGQPGAAGQPGAAGQPGAAGQPGAAGQPGAAGQPGAAGQPGAAGQPGAAGQPGAGFGVGSEQPTPGAGAGSGSADGNQSGTGSGTGNGQQGSGQAGSGQAGSGQEGSGQAGSGQAGSGQAGSGQAGSGQAGLDNTASGQSEGGQASAMDGDQSGRDGQSNSGSLLQPNAQQGTGSGTGSDIGADQASGESPGQIGDAQPGSGTDQSSGRHSLAAEARTSQSHSLAADARTRSTTRQTSVIAPDTAPGTASGTAPGTAPGTAVVTTFHGCGTVNHKGMINILLALALLVLL
- glycan array binding signal (z-score) [1]: 0.341
- glycan array binding signal (z-score) [2]: -0.937
- glycan array binding signal (z-score) [3]: -0.293
- glycan array binding signal (z-score) [4]: 0.774
- glycan array binding signal (z-score) [5]: 0.148
- glycan array binding signal (z-score) [6]: -0.775
- glycan array binding signal (z-score) [7]: -0.654
- glycan array binding signal (z-score) [8]: 1.51
- glycan array binding signal (z-score) [9]: -0.117
- glycan array binding signal (z-score) [10]: -0.121
- glycan array binding signal (z-score) [11]: -0.344
- glycan array binding signal (z-score) [12]: -0.894
- glycan array binding signal (z-score) [13]: 0.4
- glycan array binding signal (z-score) [14]: 0.168
- glycan array binding signal (z-score) [15]: -1.06
- glycan array binding signal (z-score) [16]: -0.166
- glycan array binding signal (z-score) (Fuc(a1-2)Gal6S(b1-4)Glc): -1.97
- glycan array binding signal (z-score) [17]: -1.55
- glycan array binding signal (z-score) (Fuc(a1-2)[Gal(a1-3)]Gal): -0.64
- glycan array binding signal (z-score) [18]: 0.68
- glycan array binding signal (z-score) [19]: -0.456
- glycan array binding signal (z-score) [20]: -0.399
- glycan array binding signal (z-score) [21]: 0.143
- glycan array binding signal (z-score) [22]: 1.41
- glycan array binding signal (z-score) [23]: -0.195
- glycan array binding signal (z-score) [24]: -1.47
- glycan array binding signal (z-score) [25]: 0.47
- glycan array binding signal (z-score) [26]: -0.297
- glycan array binding signal (z-score) [27]: -0.093
- glycan array binding signal (z-score) [28]: 0.479
